This passage reports binding signal results from PMC7819943, “Rice protein-binding microarrays: a tool to detect cis-acting elements near promoter regions in rice”.

By UniProt entry, the sequences of proteins in these tests, tags left out.
UniProt Q0JBA9, entry or part of it: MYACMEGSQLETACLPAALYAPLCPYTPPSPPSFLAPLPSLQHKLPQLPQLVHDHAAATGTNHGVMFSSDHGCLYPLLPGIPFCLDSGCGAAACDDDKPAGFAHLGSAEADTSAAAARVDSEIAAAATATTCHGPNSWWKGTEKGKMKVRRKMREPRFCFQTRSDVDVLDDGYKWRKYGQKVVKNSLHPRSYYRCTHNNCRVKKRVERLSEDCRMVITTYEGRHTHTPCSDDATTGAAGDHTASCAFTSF

The list shows a part of the results.

The target in the assay is OsWRKY34 (Oryza sativa, UniProt Q0JBA9 1-250). In words: protein-binding microarray (RPBM); PBS, 2% BSA, 51.3 ng/ul salmon testes DNA, 50 uM zinc acetate, 200 nM TF, 25 C, 1 h; high values mean tight binding. To be noted: protein: recombinant; tags: N-terminal polyhistidine and DsRed monomer fusion (pET32a); label: CyDye5-dUTP incorporated in the synthesized complementary strand; 3' TTTTT single-stranded linker to array surface; dsDNA, one strand shown. The method, boiled down: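 A custom Agilent array was converted to double-stranded form by primer extension with Cy5-dUTP and blocked with 2% BSA. Protein at 200 nM in PBS with 2% BSA, salmon testes DNA and 50 µM zinc acetate was applied for 1 h at 25 °C, followed by washing. The proteins were polyhistidine–DsRed N-terminal fusions of transcription factors, expressed in E. coli BL21-CodonPlus and Ni–NTA-purified. The binding signal is per-feature fluorescence intensity (arbitrary units) from an Axon 4000B scanner.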
With “CGCTGTACTGCCTTCCGTCTAGTAATTGCTAATTGCTACTCGGAGTCACCTAGTGCAG”, the binding signal was 8270 fluorescence intensity (a.u.).
The same measure for “TCGGCATCGGACGGTCACCGACGTCTCTCAAGGCGGCGAACGGAGTCACCTAGTGCAG”: 8040 fluorescence intensity (a.u.); for “AAACGCCATCAGACGTTCGACACGTACACACGCCCTGCGGCGGAGTCACCTAGTGCAG”: 9730 fluorescence intensity (a.u.); for “TTTCGTTTTCTCTTGGTCAACATTAATCCGCTCGATCGCCCGGAGTCACCTAGTGCAG”: 9890 fluorescence intensity (a.u.).
The same measure for “GTTGTCATTTCTTAATTCATGCTGTCATAATCCGTTAGTCCGGAGTCACCTAGTGCAG”: 8670 fluorescence intensity (a.u.).
The same measure for “TGATACTCCCGGTCCCATGTCACCGACAAGTATAATCGTTCGGAGTCACCTAGTGCAG”: 8060 fluorescence intensity (a.u.); for “TCTCTCTTTTTTTAAGCACCTTTTCTGCCTTTTTTCTTTTCGGAGTCACCTAGTGCAG”: 12200 fluorescence intensity (a.u.); for “TCCCGATATCATATTATAACCCTTCTAGAAATCTAATGTTCGGAGTCACCTAGTGCAG”: 8160 fluorescence intensity (a.u.).
For the sequence “CTTTGATTTTTCAACACACGTTTGACCATTTGTTTTATATCGGAGTCACCTAGTGCAG”, the binding signal was 10500 fluorescence intensity (a.u.).
As for “CACTTGCATCAACTCCTTTTCACTCCACTCACTTGCACTCCGGAGTCACCTAGTGCAG”, the binding signal was 10800 fluorescence intensity (a.u.).
The same measure for “ACTGATCTTAATGCACGTCCATGGCTCATTGTCTCTGTTGCGGAGTCACCTAGTGCAG”: 8380 fluorescence intensity (a.u.); for “ACATGTTTGACCGTTCGTCTTATTCAAAAGTTAATTCTTTCGGAGTCACCTAGTGCAG”: 10200 fluorescence intensity (a.u.); for “CAACCCTCGCCGCCCAAATGCATACCTATATATATACTCCCGGAGTCACCTAGTGCAG”: 8740 fluorescence intensity (a.u.).
The same measure for “TTGCTACCTTGTTTCTAGAGTTAGTATGTTAGTATGTGTTCGGAGTCACCTAGTGCAG”: 10100 fluorescence intensity (a.u.).
The same measure for “CAGCTTGAAATTAGGCCCAGTTTGTTTCGGTTCTTGGGCCCGGAGTCACCTAGTGCAG”: 8390 fluorescence intensity (a.u.); for “TCCCTTTTCGCTGCCCATATCTGAACCCCATGCCCGTGCCCGGAGTCACCTAGTGCAG”: 10900 fluorescence intensity (a.u.).
With “CATCATGACTTATTATATTCACACCTCCGTGCAAACCTATCGGAGTCACCTAGTGCAG”, the binding signal is 8920 fluorescence intensity (a.u.).
The same measure for “GAAGGGTTTGTACAAGTGCTCAGGCTATTGGTATGTCCAACGGAGTCACCTAGTGCAG”: 8280 fluorescence intensity (a.u.); for “AGTCGTGGCCCTCCACCCCAAGCCACCCACTTAAATTCCTCGGAGTCACCTAGTGCAG”: 11200 fluorescence intensity (a.u.); for “CATTTTTCTAATTACAAAGTCCATTTCTTTTTATGTTTTCCGGAGTCACCTAGTGCAG”: 8830 fluorescence intensity (a.u.).
With “CATGTCCAACTTTAATTGTTCGTCTTTTTTTTGAAAAAACCGGAGTCACCTAGTGCAG”, the binding signal was 8630 fluorescence intensity (a.u.).
Turning to “ACATATAAATTTTTAACTTTTCCATCACATTGTTTTAATTCGGAGTCACCTAGTGCAG”, the binding signal is 10500 fluorescence intensity (a.u.).
The same measure for “GCCTATCCTAGCGTCGTCATCTTCCTCGCGCGATACGGTTCGGAGTCACCTAGTGCAG”: 9050 fluorescence intensity (a.u.).
